Data on 2 substances can be found in PMC12259948.

Amino acid sequences for entries named in this document (tags omitted).
UniProt O15550: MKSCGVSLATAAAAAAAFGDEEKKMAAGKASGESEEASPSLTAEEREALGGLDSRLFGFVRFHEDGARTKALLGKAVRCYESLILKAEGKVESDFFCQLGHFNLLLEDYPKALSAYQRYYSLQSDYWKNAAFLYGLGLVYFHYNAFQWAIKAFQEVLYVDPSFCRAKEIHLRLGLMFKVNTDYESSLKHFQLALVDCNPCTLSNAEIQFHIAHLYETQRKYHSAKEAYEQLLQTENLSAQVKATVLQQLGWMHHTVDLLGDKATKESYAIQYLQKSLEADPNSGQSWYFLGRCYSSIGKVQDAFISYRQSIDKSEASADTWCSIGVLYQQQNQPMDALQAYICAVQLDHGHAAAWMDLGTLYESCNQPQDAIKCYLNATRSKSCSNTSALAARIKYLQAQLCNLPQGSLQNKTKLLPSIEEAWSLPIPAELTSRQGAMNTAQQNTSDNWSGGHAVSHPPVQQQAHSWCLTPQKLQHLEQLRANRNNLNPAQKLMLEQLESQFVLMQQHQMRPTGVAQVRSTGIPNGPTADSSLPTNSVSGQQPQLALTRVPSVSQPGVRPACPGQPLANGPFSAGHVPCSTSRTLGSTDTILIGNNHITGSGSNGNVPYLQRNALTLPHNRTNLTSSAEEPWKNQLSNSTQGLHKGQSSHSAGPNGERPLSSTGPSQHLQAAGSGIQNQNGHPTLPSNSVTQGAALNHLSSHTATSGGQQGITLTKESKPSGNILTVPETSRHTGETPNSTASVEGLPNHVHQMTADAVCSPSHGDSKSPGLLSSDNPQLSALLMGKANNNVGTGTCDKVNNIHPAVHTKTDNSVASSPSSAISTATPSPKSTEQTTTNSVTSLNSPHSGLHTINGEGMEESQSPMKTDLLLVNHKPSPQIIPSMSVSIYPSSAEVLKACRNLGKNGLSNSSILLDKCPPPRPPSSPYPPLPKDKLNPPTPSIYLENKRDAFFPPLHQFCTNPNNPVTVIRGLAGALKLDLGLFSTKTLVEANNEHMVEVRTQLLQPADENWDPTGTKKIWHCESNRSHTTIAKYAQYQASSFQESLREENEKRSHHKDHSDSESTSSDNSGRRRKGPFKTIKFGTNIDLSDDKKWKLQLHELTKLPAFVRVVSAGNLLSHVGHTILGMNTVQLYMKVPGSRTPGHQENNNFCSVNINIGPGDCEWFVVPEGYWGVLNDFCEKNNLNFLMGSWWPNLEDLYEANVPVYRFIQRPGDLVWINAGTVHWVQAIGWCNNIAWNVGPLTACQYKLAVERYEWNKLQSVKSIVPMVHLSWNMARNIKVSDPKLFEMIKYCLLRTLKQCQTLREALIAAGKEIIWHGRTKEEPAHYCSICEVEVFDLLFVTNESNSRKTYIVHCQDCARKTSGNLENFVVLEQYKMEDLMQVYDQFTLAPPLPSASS
UniProt Q96RN5: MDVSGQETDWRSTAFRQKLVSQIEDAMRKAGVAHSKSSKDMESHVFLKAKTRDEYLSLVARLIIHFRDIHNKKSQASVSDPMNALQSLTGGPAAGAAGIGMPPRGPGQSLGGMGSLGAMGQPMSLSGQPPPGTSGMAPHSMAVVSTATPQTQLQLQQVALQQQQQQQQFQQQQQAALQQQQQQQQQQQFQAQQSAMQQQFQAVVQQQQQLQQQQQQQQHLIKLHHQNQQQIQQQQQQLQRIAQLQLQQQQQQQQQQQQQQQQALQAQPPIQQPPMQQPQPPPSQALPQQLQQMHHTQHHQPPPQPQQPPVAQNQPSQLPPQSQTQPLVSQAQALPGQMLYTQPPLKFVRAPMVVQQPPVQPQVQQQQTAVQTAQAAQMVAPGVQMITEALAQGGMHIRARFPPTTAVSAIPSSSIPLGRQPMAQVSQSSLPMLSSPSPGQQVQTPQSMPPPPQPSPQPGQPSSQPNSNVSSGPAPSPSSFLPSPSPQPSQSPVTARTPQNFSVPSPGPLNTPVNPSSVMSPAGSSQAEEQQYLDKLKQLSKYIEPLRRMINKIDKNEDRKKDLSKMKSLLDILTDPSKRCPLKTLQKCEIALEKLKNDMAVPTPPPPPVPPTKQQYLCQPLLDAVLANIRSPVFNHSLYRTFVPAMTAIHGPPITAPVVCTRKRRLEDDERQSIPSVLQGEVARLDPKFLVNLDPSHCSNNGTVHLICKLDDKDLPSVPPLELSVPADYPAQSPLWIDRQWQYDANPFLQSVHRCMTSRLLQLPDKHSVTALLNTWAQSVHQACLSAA
UniProt Q09472: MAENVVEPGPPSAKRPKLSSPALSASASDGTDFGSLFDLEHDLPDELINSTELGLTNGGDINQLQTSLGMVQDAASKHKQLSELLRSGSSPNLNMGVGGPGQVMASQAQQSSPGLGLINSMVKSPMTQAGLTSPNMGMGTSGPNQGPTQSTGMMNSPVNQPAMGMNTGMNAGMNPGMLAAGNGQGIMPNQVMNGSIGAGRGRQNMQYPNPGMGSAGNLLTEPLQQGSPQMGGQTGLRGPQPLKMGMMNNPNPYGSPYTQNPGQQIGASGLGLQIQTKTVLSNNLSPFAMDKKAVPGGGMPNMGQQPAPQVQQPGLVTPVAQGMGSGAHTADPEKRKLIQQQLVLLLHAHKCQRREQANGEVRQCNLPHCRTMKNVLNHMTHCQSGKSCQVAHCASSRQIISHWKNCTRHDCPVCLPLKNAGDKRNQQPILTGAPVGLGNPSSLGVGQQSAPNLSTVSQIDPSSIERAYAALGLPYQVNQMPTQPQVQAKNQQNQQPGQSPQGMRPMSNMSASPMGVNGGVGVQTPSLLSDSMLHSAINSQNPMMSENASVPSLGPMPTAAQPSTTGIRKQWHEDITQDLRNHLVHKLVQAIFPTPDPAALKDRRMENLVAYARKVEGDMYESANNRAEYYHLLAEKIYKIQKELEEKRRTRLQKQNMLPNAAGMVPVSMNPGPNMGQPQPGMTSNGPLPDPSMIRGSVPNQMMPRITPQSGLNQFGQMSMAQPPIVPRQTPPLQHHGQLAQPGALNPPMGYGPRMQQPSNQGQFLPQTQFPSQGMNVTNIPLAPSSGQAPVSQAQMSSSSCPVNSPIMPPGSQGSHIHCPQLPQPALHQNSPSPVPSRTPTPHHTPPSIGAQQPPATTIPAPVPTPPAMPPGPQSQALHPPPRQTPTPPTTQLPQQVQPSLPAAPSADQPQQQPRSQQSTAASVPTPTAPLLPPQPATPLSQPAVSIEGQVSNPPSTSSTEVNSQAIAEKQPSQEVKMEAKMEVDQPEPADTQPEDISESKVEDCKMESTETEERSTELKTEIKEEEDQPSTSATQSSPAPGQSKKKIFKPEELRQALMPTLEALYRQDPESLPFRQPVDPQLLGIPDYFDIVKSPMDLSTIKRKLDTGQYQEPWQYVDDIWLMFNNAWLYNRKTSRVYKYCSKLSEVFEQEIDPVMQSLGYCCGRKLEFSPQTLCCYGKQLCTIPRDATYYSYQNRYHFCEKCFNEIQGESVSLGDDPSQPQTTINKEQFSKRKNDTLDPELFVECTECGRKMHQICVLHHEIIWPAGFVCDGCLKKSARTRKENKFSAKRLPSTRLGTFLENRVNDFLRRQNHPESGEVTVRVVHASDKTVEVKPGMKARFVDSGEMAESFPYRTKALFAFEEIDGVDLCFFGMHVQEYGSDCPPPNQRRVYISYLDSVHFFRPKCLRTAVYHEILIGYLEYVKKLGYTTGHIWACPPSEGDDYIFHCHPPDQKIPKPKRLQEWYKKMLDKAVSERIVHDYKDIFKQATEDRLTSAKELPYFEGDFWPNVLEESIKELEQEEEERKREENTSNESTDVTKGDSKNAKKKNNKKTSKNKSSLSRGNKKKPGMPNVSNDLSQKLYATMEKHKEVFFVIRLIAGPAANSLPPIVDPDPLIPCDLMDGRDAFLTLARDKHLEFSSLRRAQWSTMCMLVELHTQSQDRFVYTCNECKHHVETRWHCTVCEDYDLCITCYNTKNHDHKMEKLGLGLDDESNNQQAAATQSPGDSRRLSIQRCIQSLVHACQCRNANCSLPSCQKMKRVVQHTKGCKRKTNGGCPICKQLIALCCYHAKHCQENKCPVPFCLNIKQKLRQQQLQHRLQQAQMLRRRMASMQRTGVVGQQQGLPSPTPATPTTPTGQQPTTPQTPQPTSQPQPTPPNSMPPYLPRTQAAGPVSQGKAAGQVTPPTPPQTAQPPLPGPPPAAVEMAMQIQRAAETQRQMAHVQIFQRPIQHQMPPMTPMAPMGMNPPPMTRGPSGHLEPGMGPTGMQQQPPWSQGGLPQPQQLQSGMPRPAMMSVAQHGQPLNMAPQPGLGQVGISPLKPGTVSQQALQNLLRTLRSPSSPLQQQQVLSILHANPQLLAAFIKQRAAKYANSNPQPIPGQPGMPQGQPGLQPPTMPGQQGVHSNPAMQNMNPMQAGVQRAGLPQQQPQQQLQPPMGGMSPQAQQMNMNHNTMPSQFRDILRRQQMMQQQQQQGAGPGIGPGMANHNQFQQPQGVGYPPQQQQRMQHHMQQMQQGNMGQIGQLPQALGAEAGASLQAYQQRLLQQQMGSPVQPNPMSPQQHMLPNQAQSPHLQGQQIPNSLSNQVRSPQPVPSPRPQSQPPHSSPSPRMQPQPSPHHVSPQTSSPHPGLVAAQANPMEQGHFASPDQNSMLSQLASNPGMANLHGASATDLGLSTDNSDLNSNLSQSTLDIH

No constants are given. Whether binding was seen depends on the method and setting. In cells and extracts the contact can be indirect. Some results given as binding are weak or reduced against the parent protein; the word gives no strength.

The target in the test is KDM6A (UniProt O15550). In words: co-IP; immunoprecipitation with pol II, Med1, KDM6A antibodies or nonspecific IgG, protocol of Cell Signaling Technology; SDS-PAGE, silver staining and western blotting; cells not named. A general note: In western blotting, separated proteins are transferred to a membrane and probed.

In the case of Med15 (from UniProt Q96RN5 1-788), the binding entry is “binds”.
As for p300 (from UniProt Q09472 1-2414), the entry is “binds”.
